Laboratory results reported in PubChem BioAssay (NCATS).
The shares of active, inactive and inconclusive entries below differ from those in the screen. A potency beside an inconclusive call is a rough fit, not a confirmed value. Active and inactive are the calls of the source. Calls come from the whole dose curve; as a rule, active = well fitted curve in the direction sought with a large enough effect; inconclusive = small, poorly fitted or top-dose-only effect, or another doubt; inactive = no such curve, though single readings can be large; an effect the other way counts as inactive or inconclusive.

Sequences of proteins named here, by UniProt entry; tags and fusion partners are left off. A change or cut given only in a name is not applied to a line headed by its entry.
UniProt O15648: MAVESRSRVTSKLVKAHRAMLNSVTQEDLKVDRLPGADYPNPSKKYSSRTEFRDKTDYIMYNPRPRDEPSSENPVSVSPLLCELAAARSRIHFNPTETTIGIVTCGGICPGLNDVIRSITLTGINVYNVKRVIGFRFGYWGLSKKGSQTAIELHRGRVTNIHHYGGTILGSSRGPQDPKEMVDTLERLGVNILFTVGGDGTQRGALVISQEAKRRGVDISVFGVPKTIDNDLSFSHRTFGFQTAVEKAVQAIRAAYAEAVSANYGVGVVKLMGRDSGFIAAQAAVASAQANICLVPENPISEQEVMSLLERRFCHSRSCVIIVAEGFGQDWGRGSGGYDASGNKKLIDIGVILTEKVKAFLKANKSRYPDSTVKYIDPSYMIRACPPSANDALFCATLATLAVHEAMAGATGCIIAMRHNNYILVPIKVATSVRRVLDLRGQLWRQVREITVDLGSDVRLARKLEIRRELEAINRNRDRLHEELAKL
UniProt P83916, whole entry, looked up: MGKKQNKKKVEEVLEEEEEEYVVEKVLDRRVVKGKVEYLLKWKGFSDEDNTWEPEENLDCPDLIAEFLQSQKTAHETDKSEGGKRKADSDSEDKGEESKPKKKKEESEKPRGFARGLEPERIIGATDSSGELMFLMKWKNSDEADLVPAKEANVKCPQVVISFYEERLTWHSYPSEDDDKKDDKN
UniProt O89049, whole entry, looked up: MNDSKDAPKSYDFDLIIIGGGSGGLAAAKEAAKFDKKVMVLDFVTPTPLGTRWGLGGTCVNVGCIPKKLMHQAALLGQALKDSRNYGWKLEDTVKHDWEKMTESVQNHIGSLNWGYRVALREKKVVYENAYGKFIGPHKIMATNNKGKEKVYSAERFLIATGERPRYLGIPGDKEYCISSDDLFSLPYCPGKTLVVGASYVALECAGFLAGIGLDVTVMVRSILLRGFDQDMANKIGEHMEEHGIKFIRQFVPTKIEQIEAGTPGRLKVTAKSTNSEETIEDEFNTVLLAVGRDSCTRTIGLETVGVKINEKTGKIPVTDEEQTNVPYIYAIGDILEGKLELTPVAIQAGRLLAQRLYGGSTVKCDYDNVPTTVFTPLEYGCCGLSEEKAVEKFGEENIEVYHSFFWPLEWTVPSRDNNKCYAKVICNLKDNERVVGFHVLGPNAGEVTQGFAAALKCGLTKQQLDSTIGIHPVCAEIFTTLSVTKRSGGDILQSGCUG
UniProt Q99549: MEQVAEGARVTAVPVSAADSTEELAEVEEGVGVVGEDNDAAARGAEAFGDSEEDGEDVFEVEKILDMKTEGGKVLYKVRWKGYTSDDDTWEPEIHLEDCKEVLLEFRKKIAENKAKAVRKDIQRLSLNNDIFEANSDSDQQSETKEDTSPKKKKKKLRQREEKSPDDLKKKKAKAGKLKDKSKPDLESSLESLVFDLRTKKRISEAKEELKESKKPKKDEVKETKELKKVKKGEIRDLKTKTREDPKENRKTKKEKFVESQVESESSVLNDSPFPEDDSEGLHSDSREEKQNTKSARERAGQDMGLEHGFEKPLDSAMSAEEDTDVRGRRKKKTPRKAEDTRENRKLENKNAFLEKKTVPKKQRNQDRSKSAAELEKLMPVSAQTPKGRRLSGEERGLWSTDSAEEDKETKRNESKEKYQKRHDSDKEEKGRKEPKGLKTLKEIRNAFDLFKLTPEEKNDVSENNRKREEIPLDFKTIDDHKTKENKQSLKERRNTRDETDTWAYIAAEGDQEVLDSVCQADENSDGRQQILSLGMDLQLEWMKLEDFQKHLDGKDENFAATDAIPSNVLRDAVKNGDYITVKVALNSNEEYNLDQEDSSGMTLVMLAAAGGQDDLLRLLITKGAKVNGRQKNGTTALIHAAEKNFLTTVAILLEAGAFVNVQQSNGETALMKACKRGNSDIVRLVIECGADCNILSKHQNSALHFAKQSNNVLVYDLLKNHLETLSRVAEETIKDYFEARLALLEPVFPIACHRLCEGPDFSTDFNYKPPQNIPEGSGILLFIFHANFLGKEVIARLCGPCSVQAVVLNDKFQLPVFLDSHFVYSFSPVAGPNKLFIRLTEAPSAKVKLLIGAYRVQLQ

Key:
[1] = target: ATP-dependent 6-phosphofructokinase (Trypanosoma brucei brucei) (UniProt O15648); test: qHTS Validation Assay to Find Inhibitors of T. brucei phosphofructokinase (AID 485368); conditions: T. brucei PFK enzyme assay, qHTS 7-point titration; series mostly up to 57.5 µM
Procedure, shortened: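 Activity was read as ADP production by luminescence (ADP-Glo) after 45 min at room temperature. The enzyme was 1.25nM PFK in 0.1M TEA pH 8.0 with 0.5 mM F6P, 0.1mM ATP and 5 mM MgCl2. Compounds were titrated up to 57 uM and % activity normalized to no-enzyme and full-enzyme controls.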

[2] = Quantitative high throughput screen for delayed death inhibitors of the malarial parasite plastid, 96 hour incubation (AID 488745); conditions: Plasmodium falciparum growth; series mostly up to 28.7 µM; note: nearly all actives have a fitted effect of over 70% in size
Procedure, shortened: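 Growth of reporter-bearing P. falciparum in red cells is measured after 96 h with compound, covering two erythrocytic cycles. Luminescence from the integrated luciferase serves as the growth signal.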

[3] = Quantitative high throughput screen for delayed death inhibitors of the malarial parasite plastid, 48 hour incubation (AID 488752); conditions: Plasmodium falciparum growth; series mostly up to 28.7 µM; note: nearly all actives have a fitted effect of over 65% in size
Procedure, shortened: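 One parasite generation (48 h, 37 C, 5% CO2) of luciferase-reporter P. falciparum in erythrocytes is run with test compound; decreased luminescence indicates inhibited growth.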

[4] = target: Chromobox protein homolog 1 (Homo sapiens) (UniProt P83916); test: qHTS Validation Assay for Inhibitors of HP1-beta Chromodomain Interactions with Methylated Histone Tails (AID 488953); conditions: HP1-beta chromodomain / methylated histone peptide binding assay; series mostly up to 114 µM; note: nearly all actives have a fitted effect of over 50% in size
Procedure, shortened: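 Measured as loss of AlphaScreen luminescence from streptavidin donor and nickel acceptor beads (10 ug/mL final) bridging HP1-beta and biotin-H3(1-18)K9me3, each 50 nM. Compounds met the preassembled complex for 30 min at RT.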

[5] = target: Thioredoxin reductase 1, cytoplasmic (Rattus norvegicus) (UniProt O89049); test: qHTS Assay for Inhibitors of Mammalian Selenoprotein Thioredoxin Reductase 1 (TrxR1) (AID 488773); conditions: purified TrxR1 enzyme activity; Potency: inhibition; series mostly up to 57.1 µM; note: nearly all actives have a fitted effect of over 40% in size
Procedure, shortened: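 Steps: enzyme (90 nM) plus NADPH (400 uM final), 5 min at ~22 deg C; compound added, 15 min; selenite (400 uM final) added; fluorescence followed for 8 min. Concentration-response curves derived from the normalized delta values.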

[6] = target: Thioredoxin reductase 1, cytoplasmic (Rattus norvegicus) (UniProt O89049); test: qHTS Assay for Substrates of Mammalian Selenoprotein Thioredoxin Reductase 1 (TrxR1) (AID 488772); conditions: purified TrxR1, NADPH consumption substrate assay; series mostly up to 57.1 µM;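 note: NADPH fluorescence in the first read after selenite addition and not the 8 min delta; a drop in NADPH fluorescence below the no-compound background marks a TrxR1 substrate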
Procedure, shortened: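 Quantitative HTS in Tris-HCl buffer at pH 7.5 with EDTA and Tween-20, using rat TrxR1, 400 uM NADPH and 400 uM selenite (final). A fall in initial NADPH fluorescence relative to background marked substrate behaviour.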

[7] = target: M-phase phosphoprotein 8 (Homo sapiens) (UniProt Q99549); test: qHTS Validation Assay for Inhibitors for MPP8 Chromodomain Interactions with Methylated Histone Tails (AID 488949); conditions: AlphaScreen MPP8 binding to H3K9me3 peptide; series mostly up to 57.1 µM; note: nearly all actives have a fitted effect of over 55% in size
Procedure, shortened: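 Disruption of the preformed MPP8–trimethyl-H3K9 peptide complex (both 50 nM, 30 min, RT) is measured after 30 min compound exposure, using AlphaScreen proximity beads; aurintricarboxylic acid titration serves as plate control.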
Potency is the fitted concentration of half-maximal effect.

**Q.** What does the source list for O=c1[nH]c2ccccc2n1C1CCN(CCCC(c2ccc(F)cc2)c2ccc(F)cc2)CC1?
**A.** Potency [1]: inactive; Potency [2]: active: 10.4 µM; Potency [3]: inconclusive: 13.1 µM [inhibitor, single point]; Potency [4]: active: 35.5 µM

**Q.** Which Potency [1] does the source give for c1ccc2c(c1)OCC(C1=NCCN1)O2 (configuration not stated) here?
**A.** inconclusive: 37.9 µM [activator, partial curve, poor fit]

**Q.** What about the Potency [5] of the same compound?
**A.** active: 7.52 µM

**Q.** Which results are given for Cc1ccc(S(=O)(=O)N[C@@H](CCCCN)C(=O)CCl)cc1?
**A.** Potency [1]: inconclusive: 4.78 µM [falling, full curve]; Potency [2]: inconclusive: 2.62 µM [inhibitor, full curve, poor fit]; Potency [5]: inconclusive: 21.2 µM [inhibitor, partial curve]

**Q.** Which Potency [2] does the source give for C[N+](C)(C)CC(=O)O here?
**A.** inconclusive: 9.28 µM [activator, single point]

**Q.** For CC(C)c1cccc(C(C)C)c1O, which Potency [3] is on record?
**A.** inactive

**Q.** Which Potency [1] does the source give for Nc1ccncc1 here?
**A.** inconclusive: 0.757 µM [activator, single point]

**Q.** What about the Potency [4] of the same compound?
**A.** inconclusive: 37.7 µM [inhibitor, single point]

**Q.** With NN=C(N)N as the compound, how does the Potency [2] read?
**A.** inactive

**Q.** Which Potency [5] does the source give for COc1ccc(Cc2nccc3cc(OC)c(OC)cc23)cc1OC here?
**A.** inconclusive: 0.336 µM [inhibitor, full curve]

**Q.** And the Potency [4]?
**A.** active: 0.006 µM

**Q.** Which results are given for CC(C)=CCOc1c2occc2cc2ccc(=O)oc12?
**A.** Potency [1]: inconclusive: 0.757 µM [activator, full curve, poor fit]; Potency [4]: inconclusive: 100 µM [inhibitor, single point]

**Q.** For c1ccc(C2CC2)c(OCC2=NCCN2)c1, which Potency [6] is on record?
**A.** inactive

**Q.** And the Potency [4]?
**A.** inconclusive: 89.1 µM [inhibitor, single point]

**Q.** What does the source list for CN1C2CCC1CC(OC(c1ccccc1)c1ccc(Cl)cc1)C2 (configuration not stated)?
**A.** Potency [3]: active: 6.57 µM; Potency [7]: inconclusive: 12.6 µM [inhibitor, full curve, poor fit]

**Q.** With O=C(CCCN1CCC2(CC1)C(=O)NCN2c1ccccc1)c1ccc(F)cc1 as the compound, how does the Potency [7] read?
**A.** inconclusive: 44.7 µM [inhibitor, partial curve]

**Q.** And the Potency [4]?
**A.** inconclusive: 44.7 µM [inhibitor, partial curve]

**Q.** Which results are given for CCCN1CCC[C@@H]2Cc3[nH]ncc3C[C@H]21?
**A.** Potency [1]: inconclusive: 0.0379 µM [falling, full curve, poor fit]; Potency [4]: inconclusive: 0.0238 µM [inhibitor, full curve, poor fit]

**Q.** Which Potency [7] does the source give for c1ccc2nc(N3CCNCC3)ccc2c1 here?
**A.** inactive

**Q.** Which results are given for C[C@]12CCC(=O)C=C1CC[C@@H]1[C@@H]2CC[C@]2(C)C(=O)CC[C@@H]12?
**A.** Potency [2]: inconclusive: 18.5 µM [inhibitor, single point]; Potency [3]: inactive

**Q.** For CCC1(c2ccc(N)cc2)CCC(=O)NC1=O (configuration not stated), which Potency [3] is on record?
**A.** inactive

**Q.** Which results are given for CC(=O)[C@H]1CC[C@H]2[C@@H]3CC[C@H]4C[C@H](O)CC[C@]4(C)[C@H]3C(=O)C[C@]12C?
**A.** Potency [1]: inactive; Potency [4]: inactive

**Q.** Which results are given for CCCN1CCC[C@@H]2Cc3nc(N)ncc3C[C@H]21?
**A.** Potency [2]: inactive; Potency [5]: inactive

**Q.** Which Potency [4] does the source give for NC1CC1c1ccccc1 (configuration not stated) here?
**A.** inactive

**Q.** With N#CC(C#N)=Cc1cc(O)c(O)c(O)c1 as the compound, how does the Potency [2] read?
**A.** inconclusive: 9.28 µM [inhibitor, partial curve]

**Q.** Which Potency [2] does the source give for CNCC(O)c1ccc(O)cc1 (configuration not stated) here?
**A.** inactive

**Q.** And the Potency [5]?
**A.** inconclusive: 18.9 µM [inhibitor, partial curve]

**Q.** Which Potency [2] does the source give for CC(Cc1ccc(OCC(=O)O)cc1)NCC(O)c1cccc(Cl)c1 (configuration not stated) here?
**A.** inactive

**Q.** And the Potency [3]?
**A.** inactive

**Q.** And the Potency [6]?
**A.** inconclusive: 33.6 µM [inhibitor, partial curve, poor fit]

**Q.** And the Potency [4]?
**A.** inactive

**Q.** Which Potency [2] does the source give for COC[C@H]1OC(=O)c2coc3c2[C@@]1(C)C1=C(C3=O)C2CCC(=O)[C@@]2(C)C[C@H]1OC(C)=O (some centres not stated) here?
**A.** active: 8.28 µM

**Q.** And the Potency [3]?
**A.** inconclusive: 18.5 µM [inhibitor, single point]

**Q.** Which Potency [7] does the source give for CN1C(=O)CCS(=O)(=O)C1c1ccc(Cl)cc1 (configuration not stated) here?
**A.** inconclusive: 29.9 µM [inhibitor, single point]

**Q.** What does the source list for O=P1(N(CCCl)CCCl)NCCCO1 (configuration not stated)?
**A.** Potency [1]: inactive; Potency [4]: active: 0.006 µM

**Q.** Which Potency [2] does the source give for Cc1nc(-c2ccc(-c3ccc(C(=O)N4CCc5cc6c(cc54)C4(CCN(C)CC4)CO6)cc3)c(C)c2)no1 here?
**A.** inconclusive: 10.4 µM [inhibitor, single point]

**Q.** And the Potency [3]?
**A.** inconclusive: 11.7 µM [inhibitor, single point]

**Q.** With CC[N+](CC)(CC)CC as the compound, how does the Potency [2] read?
**A.** active: 4.15 µM

**Q.** What about the Potency [3] of the same compound?
**A.** inconclusive: 13.1 µM [inhibitor, single point]

**Q.** What about the Potency [5] of the same compound?
**A.** inconclusive: 37.7 µM [inhibitor, single point]

**Q.** Which Potency [2] does the source give for CC(N)C(=O)OC(C)(C)Cc1ccc(Cl)cc1 (configuration not stated) here?
**A.** inactive

**Q.** With COC(=O)[C@@H](N)CCCN=C(N)N[N+](=O)[O-] as the compound, how does the Potency [4] read?
**A.** inactive

**Q.** For CC(O)(CS(=O)(=O)c1ccc(F)cc1)C(=O)Nc1ccc(C#N)c(C(F)(F)F)c1 (configuration not stated), which Potency [4] is on record?
**A.** inactive

**Q.** With Clc1cccc(N2CCNCC2)c1 as the compound, how does the Potency [2] read?
**A.** inconclusive: 0.233 µM [inhibitor, single point]

**Q.** For O=C1NCN(c2ccccc2)C12CCN(CC1COc3ccccc3O1)CC2 (configuration not stated), which Potency [4] is on record?
**A.** inconclusive: 44.7 µM [inhibitor, partial curve]
